The list shows a part of the results.
Columns and labels:
Assay in all cases: glycan array binding signal (z-score within array); higher = stronger binding
Conditions in all cases: glycan notation: IUPAC condensed, linker removed
[1] = target: Gal(b1-4)GlcNAc(b1-2)Man(a1-6)[GlcNAc(b1-2)Man(a1-3)]Man(b1-4)GlcNAc(b1-4)GlcNAc
In short: (§1)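 Glycan array data came from 3228 arrays in the Consortium for Functional Glycomics database, and only arrays with an available protein sequence were kept. Glycan names were put into IUPAC-condensed notation, and columns mapping to the same glycan were averaged. The binding signal is a within-array Z-score, averaged across arrays of one protein sequence run at different concentrations or buffers and across linkers. A negative Z-score can be read as non-binding.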

[2] = target: Gal(b1-4)GlcNAc(b1-2)Man(a1-6)[Man(a1-3)]Man(b1-4)GlcNAc(b1-4)GlcNAc
In short: as §1

[3] = target: Gal(b1-4)GlcNAc(b1-2)[Gal(b1-4)GlcNAc(b1-4)]Man(a1-3)[Gal(b1-4)GlcNAc(b1-2)Man(a1-6)]Man(b1-4)GlcNAc(b1-4)GlcNAc
In short: as §1

[4] = target: Gal(b1-4)GlcNAc(b1-2)[Gal(b1-4)GlcNAc(b1-4)]Man(a1-3)[Gal(b1-4)GlcNAc(b1-2)[Gal(b1-4)GlcNAc(b1-6)]Man(a1-6)]Man(b1-4)GlcNAc(b1-4)GlcNAc
In short: as §1

[5] = target: Gal(b1-4)GlcNAc(b1-2)[Gal(b1-4)GlcNAc(b1-4)]Man(a1-3)[GlcNAc(b1-4)][Gal(b1-4)GlcNAc(b1-2)Man(a1-6)]Man(b1-4)GlcNAc(b1-4)GlcNAc
In short: as §1

[6] = target: Gal(b1-4)GlcNAc(b1-2)[Gal(b1-4)GlcNAc(b1-4)]Man(a1-3)[GlcNAc(b1-4)][Gal(b1-4)GlcNAc(b1-2)[Gal(b1-4)GlcNAc(b1-6)]Man(a1-6)]Man(b1-4)GlcNAc(b1-4)GlcNAc
In short: as §1

[7] = target: Gal(b1-4)GlcNAc(b1-2)[Gal(b1-4)GlcNAc(b1-6)]Man(a1-6)[Gal(b1-4)GlcNAc(b1-2)Man(a1-3)]Man(b1-4)GlcNAc(b1-4)GlcNAc
In short: as §1

[8] = target: Gal(b1-4)GlcNAc(b1-2)[Gal(b1-4)GlcNAc(b1-6)]Man(a1-6)[Gal(b1-4)GlcNAc(b1-2)Man(a1-3)]Man(b1-4)GlcNAc(b1-4)[Fuc(a1-6)]GlcNAc
In short: as §1

[9] = target: Gal(b1-4)GlcNAc(b1-2)[Gal(b1-4)GlcNAc(b1-6)]Man(a1-6)[GlcNAc(b1-4)][Gal(b1-4)GlcNAc(b1-2)Man(a1-3)]Man(b1-4)GlcNAc(b1-4)GlcNAc
In short: as §1

[10] = target: Gal(b1-4)GlcNAc(b1-2)[Gal(b1-4)GlcNAc(b1-6)]Man(a1-6)[GlcNAc(b1-4)][Gal(b1-4)GlcNAc(b1-2)[Gal(b1-4)GlcNAc(b1-4)]Man(a1-3)]Man(b1-4)GlcNAc(b1-4)[Fuc(a1-6)]GlcNAc
In short: as §1

[11] = target: Gal(b1-4)GlcNAc(b1-3)Gal(b1-3)GalNAc
In short: as §1

[12] = target: Gal(b1-4)GlcNAc(b1-3)Gal(b1-3)GlcNAc
In short: as §1

[13] = target: Gal(b1-4)GlcNAc(b1-3)Gal(b1-4)Glc
In short: as §1

[14] = target: Gal(b1-4)GlcNAc(b1-3)Gal(b1-4)GlcNAc
In short: as §1

[15] = target: Gal(b1-4)GlcNAc(b1-3)Gal(b1-4)GlcNAc(b1-2)Man(a1-3)[Gal(b1-4)GlcNAc(b1-3)Gal(b1-4)GlcNAc(b1-2)Man(a1-6)]Man(b1-4)GlcNAc(b1-4)GlcNAc
In short: as §1

[16] = target: Gal(b1-4)GlcNAc(b1-3)Gal(b1-4)GlcNAc(b1-2)Man(a1-3)[Gal(b1-4)GlcNAc(b1-3)Gal(b1-4)GlcNAc(b1-2)Man(a1-6)]Man(b1-4)GlcNAc(b1-4)[Fuc(a1-6)]GlcNAc
In short: as §1

[17] = target: Gal(b1-4)GlcNAc(b1-3)Gal(b1-4)GlcNAc(b1-2)[Gal(b1-4)GlcNAc(b1-3)Gal(b1-4)GlcNAc(b1-6)]Man(a1-6)[Gal(b1-4)GlcNAc(b1-3)Gal(b1-4)GlcNAc(b1-2)Man(a1-3)]Man(b1-4)GlcNAc(b1-4)GlcNAc
In short: as §1

[18] = target: Gal(b1-4)GlcNAc(b1-3)Gal(b1-4)GlcNAc(b1-2)[Gal(b1-4)GlcNAc(b1-3)Gal(b1-4)GlcNAc(b1-6)]Man(a1-6)[Gal(b1-4)GlcNAc(b1-3)Gal(b1-4)GlcNAc(b1-2)Man(a1-3)]Man(b1-4)GlcNAc(b1-4)[Fuc(a1-6)]GlcNAc
In short: as §1

[19] = target: Gal(b1-4)GlcNAc(b1-3)Gal(b1-4)GlcNAc(b1-3)Gal(b1-4)GlcNAc
In short: as §1

[20] = target: Gal(b1-4)GlcNAc(b1-3)Gal(b1-4)GlcNAc(b1-3)Gal(b1-4)GlcNAc(b1-2)Man(a1-3)[Gal(b1-4)GlcNAc(b1-3)Gal(b1-4)GlcNAc(b1-3)Gal(b1-4)GlcNAc(b1-2)Man(a1-6)]Man(b1-4)GlcNAc(b1-4)GlcNAc
In short: as §1

[21] = target: Gal(b1-4)GlcNAc(b1-3)Gal(b1-4)GlcNAc(b1-3)Gal(b1-4)GlcNAc(b1-2)Man(a1-3)[Gal(b1-4)GlcNAc(b1-3)Gal(b1-4)GlcNAc(b1-3)Gal(b1-4)GlcNAc(b1-2)Man(a1-6)]Man(b1-4)GlcNAc(b1-4)[Fuc(a1-6)]GlcNAc
In short: as §1

[22] = target: Gal(b1-4)GlcNAc(b1-3)Gal(b1-4)GlcNAc(b1-3)Gal(b1-4)GlcNAc(b1-2)[Gal(b1-4)GlcNAc(b1-3)Gal(b1-4)GlcNAc(b1-3)Gal(b1-4)GlcNAc(b1-6)]Man(a1-6)[Gal(b1-4)GlcNAc(b1-3)Gal(b1-4)GlcNAc(b1-3)Gal(b1-4)GlcNAc(b1-2)Man(a1-3)]Man(b1-4)GlcNAc(b1-4)[Fuc(a1-6)]GlcNAc
In short: as §1

B1: AT5G17240(42) (Arabidopsis thaliana), Q6NQJ8 (protein)
chain: MDLEHQTMETFLRWAAEIGISDSIDSSRFRDSCLGHSLSVSDFPDAGGRGLGAARELKKGELVLKVPRKALMTTESIIAKDLKLSDAVNLHNSLSSTQILSVCLLYEMSKEKKSFWYPYLFHIPRDYDLLATFGNFEKQALQVEDAVWATEKATAKCQSEWKEAGSLMKELELKPKFRSFQAWLWASATISSRTLHVPWDSAGCLCPVGDLFNYDAPGDYSNTPQGPESANNVEEAGLVVETHSERLTDGGFEEDVNAYCLYARRNYQLGEQVLLCYGTYTNLELLEHYGFMLEENSNDKVFIPLETSLFSLASSWPKDSLYIHQDGKLSFALISTLRLWLIPQSQRDKSVMRLVYAGSQISVKNEILVMKWMSEKCGSVLRDLPTSVTEDTVLLHNIDKLQDPELRLEQKETEAFGSEVRAFLDANCLWDVTVLSGKPIEFSRKTSRMLSKWRWSVQWRLSYKRTLADCISYCNEKMNNLLGTQDRLRDL
[1]
  glycan array binding signal (z-score): -0.264
[2]
  glycan array binding signal (z-score): -0.242
[3]
  glycan array binding signal (z-score): 0.702
[4]
  glycan array binding signal (z-score): -0.661
[5]
  glycan array binding signal (z-score): -0.557
[6]
  glycan array binding signal (z-score): -0.651
[7]
  glycan array binding signal (z-score): -0.462
[8]
  glycan array binding signal (z-score): 0.42
[9]
  glycan array binding signal (z-score): -0.508
[10]
  glycan array binding signal (z-score): -0.829
[11]
  glycan array binding signal (z-score): 0.052
[12]
  glycan array binding signal (z-score): -0.314
[13]
  glycan array binding signal (z-score): -0.089
[14]
  glycan array binding signal (z-score): -0.153
[15]
  glycan array binding signal (z-score): 0.515
[16]
  glycan array binding signal (z-score): -0.27
[17]
  glycan array binding signal (z-score): 0.954
[18]
  glycan array binding signal (z-score): -0.098
[19]
  glycan array binding signal (z-score): -0.161
[20]
  glycan array binding signal (z-score): 0.514
[21]
  glycan array binding signal (z-score): -0.845
[22]
  glycan array binding signal (z-score): -0.248
